The labels stand for the following.
B1: MAdCAM Antibody Table 2 Clone 64 (antibody, human IgG1, V domains shown)
VH: EVQLLESGGGLVQPGGSLRLSCAASGFTFSNSDMNWVRQAPGKGLEWVAHIWNDGSQKYYADSVKGRFTISRDNSKNTLYLQMNSLRAEDTAVYYCARDRTDPGYSSAMDVWGQGTTVTVSS
VL: DIQMTQSPSSLSASVGDRVTITCRASQDIRNYLGWYQQKPGKAPKLLIYDASSLETGVPSRFSGSGSGTDFTLTISSLQPEDFATYYCQQATSLPLTFGGGTKVEIK
B2: MAdCAM Antibody Table 1 Clone 52 (scFv)
scFv: EVQLLESGGGLVQPGGSLRLSCAASGFTFSNSDMNWVRQAPGKGLEWVAHIWNDGSQKYYADSVKGRFTISRDNSKNTLYLQMNSLRAEDTAVYYCARDRTDPGYSSAMDVWGQGTTVTVSSGGGGSGGGGSGGGGSGGGGSDIQMTQSPSSLSASVGDRVTITCRASQDIRNYLGWYQQKPGKAPKLLIYDASSLETGVPSRFSGSGSGTDFTLTISSLQPEDFATYYCQQATSLPLTFGGGTKVEIK
B3: MAdCAM Antibody Table 1 Clone 50 (scFv)
scFv: QVQLVQSGAEVKKPGASVKVSCKASGYTFTSYDINWVRQAPGQGLEWMGWINPNSGTTGYAQKFQGRVTMTRDTSTSTVYMELSSLRSEDTAVYYCARSPYYYYGMDVWGQGTTVTVSSGGGGSGGGGSGGGGSGGGGSDIQMTQSPSSLSASVGDRVTITCRASHFISRWVAWYQQKPGKAPKLLIYAASTLQSGVPSRFSGSGSGTDFTLTISSLQPEDFATYYCQQSYSGISFGPGTKVDIK
B4: MAdCAM Antibody Table 1 Clone 54 (scFv)
scFv: EVQLLESGGGLVQPGGSLRLSCAASGFTFGDYAMSWVRQAPGKGLEWVAVVSYDGTNKYYADSVKGRFTISRDNSKNTLYLQMNSLRAEDTAVYYCAKDICSSTSCYFDLWGRGTLVTVSSGGGGSGGGGSGGGGSGGGGSDIQMTQSPSSLSASVGDRVTITCRASQNINNYVNWYQQKPGKAPKLLIYDASNLETGVPSRFSGSGSGTDFTLTISSLQPEDFATYYCQQANSFPPTFGQGTRLEIK
B5: MAdCAM Antibody Table 2 Clone 2 (antibody, human IgG1, V domains shown)
VH: QVQLVQSGAEVKKPGASVKVSCKASGYPFIGYYLHWVRQAPGQGLEWMGIINPSGGSTSYAQKFQGRVTMTRDTSTSTVYMELSSLRSEDTAVYYCAREGRLSYGMDAWGQGTLVTVSS
VL: DIQMTQSPSSLSASVGDRVTITCRASQSISSYLAWYQQKPGKAPKLLIYGASTLESGVPSRFSGSGSGTDFTLTISSLQPEDFATYYCQQTWGPPFTFGQGTKLEIK
B6: MAdCAM Antibody Table 2 Clone 3 (antibody, human IgG1, V domains shown)
VH: B5 VH with Y32Q
VL: B5 VL
B7: MAdCAM Antibody Table 2 Clone 43 (antibody, human IgG1, V domains shown)
VH: QVQLVQSGAEVKKPGASVKVSCKASGYTFTSYGISWVRQAPGQGLEWMGWMHPKSGDTGLTQKFQGRVTMTRDTSTSTVYMELSSLRSEDTAVYYCARDTPYYYYGMDVWGQGTTVTVSS
VL: B5 VL with Y32W, G50A, T53S, E55Q, T91S, W92Y, G93S, P94V, F96I, L104V
B8: MAdCAM Antibody Table 2 Clone 34 (antibody, human IgG1, V domains shown)
VH: QVQLVQSGAEVKKPGASVKVSCKASGYTFTGYYIHWVRQAPGQGLEWMGWMNPNSGNTGYAQKFQGRVTMTRDTSTSTVYMELSSLRSEDTAVYYCARDPGFLGYCSGGSCYDGWFDPWGQGTLVTVSS
VL: B5 VL with A34H, G50A, T53S, E55Q, T91S, W92Y, G93T, P94A, F96Y
B9: MAdCAM Antibody Table 2 Clone 56 (antibody, human IgG1, V domains shown)
VH: EVQLVESGGGLVKPGGSLRLSCAASGFTFSSYWMSWVRQAPGKGLEWVSAIGTGGGTYYAAPVKGRFTISRDDSKNTLYLQMNSLKTEDTAVYYCAREWLVPYYGMDVWGQGTTVTVSS
VL: B5 VL with S31R, Y32W, T53N, E55Q, T91S, W92Y, G93S, P94T, F96W, L104V
B10: MAdCAM Antibody Table 1 Clone 44 (scFv)
scFv: EVQLVESGGGLVKPGGSLRLSCAASGFTFSSYWMSWVRQAPGKGLEWVSAIGTGGGTYYAAPVKGRFTISRDDSKNTLYLQMNSLKTEDTAVYYCAREWLVPYYGMDVWGQGTTVTVSSGGGGSGGGGSGGGGSGGGGSDIQMTQSPSSLSASVGDRVTITCRASQSISRWLAWYQQKPGKAPKLLIYGASNLQSGVPSRFSGSGSGTDFTLTISSLQPEDFATYYCQQSYSTPWTFGQGTKVEIK
B11: MAdCAM Antibody Table 2 Clone 54 (antibody, human IgG1, V domains shown)
VH: QVQLVQSGAEVKKPGSSVKVSCKASGGTLSRYGVSWVRQAPGQGLEWMGGIIPIFGTTNYAQKFQGRVTITADESTSTAYMELSSLRSEDTAVYYCARDRVYYDSSGYPTWYFDLWGRGTLVTVSS
VL: EIVMTQSPATLSVSPGERATLSCRASQSVSSSYLAWYQQKPGQAPRLLIYGASTRATGIPARFSGSGSGTEFTLTISSLQSEDFAVYYCQQYGSSPITFGQGTKVEIK
B12: MAdCAM Antibody Table 1 Clone 51 (scFv)
scFv: EVQLLESGGGLVQPGGSLRLSCAASGFTFNNYGMNWVRQAPGKGLEWVSRINSDGSSTSYADSVKGRFTISRDNSKNTLYLQMNSLRAEDTAVYYCARGAYYYYYMDVWGQGTLVTVSSGGGGSGGGGSGGGGSGGGGSEIVMTQSPATLSVSPGERATLSCRASQSVSGSYLAWYQQKPGQAPRLLIYATSSRASGIPARFSGSGSGTEFTLTISSLQSEDFAVYYCQQYYSGLTFGQGTKVEIK
B13: MAdCAM Antibody Table 1 Clone 55 (scFv)
scFv: QVQLVQSGAEVKKPGASVKVSCKASGYTFTSYYMHWVRQAPGQGLEWMGIIDPSGGSTSYAQKFQGRVTMTRDTSTSTVYMELSSLRSEDTAVYYCAREEWSSGGVGYFDYWGQGTLVTVSSGGGGSGGGGSGGGGSGGGGSDIQMTQSPSSLSASVGDRVTITCRASQGISSYLAWYQQKPGKAPKLLIYATSSLQTGVPSRFSGSGSGTDFTLTISSLQPEDFATYYCQQTYSIPITFGQGTRLEIK
B14: MAdCAM Antibody Table 1 Clone 48 (scFv)
scFv: EVQLLESGGGLVQPGGSLRLSCAASGFTFSDHGMHWVRQAPGKGLEWVSVIYGGESTYYADSVKGRFTISRDNSKNTLYLQMNSLRAEDTAVYYCARDPAVAGGGIFDYWGQGTLVTVSSGGGGSGGGGSGGGGSGGGGSDIQMTQSPSSLSASVGDRVTITCRASQGISNYLAWYQQKPGKAPKLLIYDASNLETGVPSRFSGSGSGTDFTLTISSLQPEDFATYYCQQSYSTCYTFGQGTKLEIK
B15: MAdCAM Antibody Table 1 Clone 58 (scFv)
scFv: QVQLVQSGAEVKKPGASVKVSCKASGYTFTGYYMHWVRQAPGQGLEWMGIINPSGGNTKYAQKFQGRVTMTRDTSTSTVYMELSSLRSEDTAVYYCTTADYYYYMDVWGKGTTVTVSSGGGGSGGGGSGGGGSGGGGSDIQMTQSPSSLSASVGDRVTITCRASQGISNYLAWYQQKPGKAPKLLIYAASSLQSGVPSRFSGSGSGTDFTLTISSLQPEDFATYYCQQYYSNADFGQGTKVEIK
B16: MAdCAM Antibody Table 2 Clone 12 (antibody, human IgG1, V domains shown)
VH: QVQLVQSGAEVKKPGASVKVSCKASGYTLTTWYMYWVRQAPGQGLEWMGWINPNRGATNYAQKFQGRVTMTRDTSTSTVYMELSSLRSEDTAVYYCAKGDLWGAMDVWGQGTLVTVSS
VL: DIQMTQSPSSLSASVGDRVTITCRASDNIGSWLAWYQQKPGKAPKLLIYAASSLQSGVPSRFSGSGSGTDFTLTISSLQPEDFATYYCQQGYSTPPTFGQGTKVEIK
B17: MAdCAM Antibody Table 2 Clone 39 (antibody, human IgG1, V domains shown)
VH: QVQLVQSGAEVKKPGASVKVSCKASGYTFTSYYMHWVRQAPGQGLEWMAWMNPNSGNTGYAQKFQGRVTMTRDTSTSTVYMELSSLRSEDTAVYYCARDYDFWSGSLGYWGQGTLVTVSS
VL: B16 VL with D27Q, N28G, G30S, S31N, W32Y, G91S, P96W
B18: MAdCAM Antibody Table 1 Clone 53 (scFv)
scFv: QVQLVQSGAEVKKPGASVKVSCKASGYTFTSYDINWVRQAPGQGLEWMGWMNPNSGNTGYAQKFQGRVTMTRDTSTSTVYMELSSLRSEDTAVYYCAKDSDYSNLLWDYWGQGTLVTVSSGGGGSGGGGSGGGGSGGGGSDIQMTQSPSSLSASVGDRVTITCRASQDITNDLGWYQQKPGKAPKLLIYQASSLESGVPSRFSGSGSGTDFTLTISSLQPEDFATYYCQQSYTIPLTFGQGTKVEIK
B19: MAdCAM Antibody Table 1 Clone 57 (scFv)
scFv: QVQLVQSGAEVKKPGASVKVSCKASGYTFTSYYMHWVRQAPGQGLEWMGIINPSGGSTSYAQKFQGRVTMTRDTSTSTVYMELSSLRSEDTAVYYCARDSVAGTGGRYYGMDVWGQGTLVTVSSGGGGSGGGGSGGGGSGGGGSDIQMTQSPSSLSASVGDRVTITCRASQGISNYFAWYQQKPGKAPKLLIYAASSLQGGVPSRFSGSGSGTDFTLTISSLQPEDFATYYCQQSYSLPYTFGQGTKLEIK
B20: MAdCAM Antibody Table 1 Clone 56 (scFv)
scFv: EVQLLESGGGLVQPGGSLRLSCAASGFTFDDYAMHWVRQAPGKGLEWVSAISGGGEDTYYADSVKGRFTISRDNSKNTLYLQMNSLRAEDTAVYYCARDASYGGNYGMDVWGQGTTVTVSSGGGGSGGGGSGGGGSGGGGSDIQMTQSPSSLSASVGDRVTITCQASQDIRNYLNWYQQKPGKAPKLLIYKASSLESGVPSRFSGSGSGTDFTLTISSLQPEDFATYYCQQANSYPVTFGGGTKVEIK
B21: MAdCAM Antibody Table 1 Clone 49 (scFv)
scFv: QVQLVQSGAEVKKPGASVKVSCKASGDTFTGYYIHWVRQAPGQGLEWMGWINPNSGGTNYAQKFQGRVTMTRDTSTSTVYMELSSLRSEDTAVYYCARSGLWLGSYYGMDVWGQGTLVTVSSGGGGSGGGGSGGGGSGGGGSDIQMTQSPSSLSASVGDRVTITCRASQTISIWLAWYQQKPGKAPKLLIYDASTLQSGVPSRFSGSGSGTDFTLTISSLQPEDFATYYCQQYSSYPLTFGQGTKVEIK
B22: MAdCAM Antibody Table 2 Clone 46 (antibody, human IgG1, V domains shown)
VH: EVQLLESGGGLVQPGGSLRLSCAASGFSFSSYTMNWVRQAPGKGLEWVSFITSSSRTIYYADSVKGRFTISRDNSKNTLYLQMNSLRAEDTAVYYCARDRRGDYGDSWYFDLWGRGTLVTVSS
VL: EIVMTQSPATLSVSPGERATLSCRASQSVRNYLAWYQQKPGQAPRLLIYGASTRATGIPARFSGSGSGTEFTLTISSLQSEDFAVYYCQQYGSSPLTFGGGTKVEIK

Substitutions are numbered along the chain they refer to. Results are given in words; binding and its absence hold for the method and conditions named. Binding can be weak; no strength is given.

For this assay, the target named is cyno MAdCAM protein (cyno). The assay is described as follows: ELISA.
For the molecule B1, the binding entry is given as “binds”.
To B2 belongs “binds”; to B3, “binds”.
Take B4: the binding result was “binds”.
Take B5: the binding entry is given as “binds”.
For B6, the binding result is recorded as “binds”.
In the case of B7, the binding entry is “binds”.
To B8 belongs “binds”; to B9, “binds”.
On to B10, for which the binding entry is given as “binds”.
In the case of B11 it was “binds”; in that of B12, “binds”.
Take B13: the binding entry is “binds”.
Consider B14, for which the binding result is recorded as “binds”.
For B15, the binding entry is recorded as “binds”.
For the molecule B16, the binding result is reported as “binds”.
As to B17, the binding result is on record as “binds”.
With B18, the binding result is listed as “binds”.
For B19, the binding entry is “binds”.
B20: the binding result is recorded as “binds”.
To B21 belongs “binds”.
B22: the binding result is “binds”.

These data come from patent publication US20210206856A1.
